Results are given in words; binding and its absence hold for the method and conditions named. In cells and extracts the contact can be indirect. These calls come from enrichment with a bait or labelling near it, and not all partners need be listed. For some of these results: A no says only that the protein was not detected with the bait. Where a sequence is shown, tags or fusion partners need not be part of it.

Amino acid sequences for entries named in this document (tags omitted).
UniProt O35730: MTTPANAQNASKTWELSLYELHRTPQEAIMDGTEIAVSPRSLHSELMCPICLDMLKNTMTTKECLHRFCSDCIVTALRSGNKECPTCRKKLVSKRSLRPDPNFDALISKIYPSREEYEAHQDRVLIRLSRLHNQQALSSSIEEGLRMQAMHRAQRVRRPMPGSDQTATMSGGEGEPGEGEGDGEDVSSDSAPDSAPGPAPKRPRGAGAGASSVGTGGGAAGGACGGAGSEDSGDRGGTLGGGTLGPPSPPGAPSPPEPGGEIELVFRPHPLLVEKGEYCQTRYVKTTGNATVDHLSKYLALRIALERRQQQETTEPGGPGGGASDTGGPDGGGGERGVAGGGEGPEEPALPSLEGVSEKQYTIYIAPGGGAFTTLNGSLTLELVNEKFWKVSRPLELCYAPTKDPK
UniProt Q8CHK4: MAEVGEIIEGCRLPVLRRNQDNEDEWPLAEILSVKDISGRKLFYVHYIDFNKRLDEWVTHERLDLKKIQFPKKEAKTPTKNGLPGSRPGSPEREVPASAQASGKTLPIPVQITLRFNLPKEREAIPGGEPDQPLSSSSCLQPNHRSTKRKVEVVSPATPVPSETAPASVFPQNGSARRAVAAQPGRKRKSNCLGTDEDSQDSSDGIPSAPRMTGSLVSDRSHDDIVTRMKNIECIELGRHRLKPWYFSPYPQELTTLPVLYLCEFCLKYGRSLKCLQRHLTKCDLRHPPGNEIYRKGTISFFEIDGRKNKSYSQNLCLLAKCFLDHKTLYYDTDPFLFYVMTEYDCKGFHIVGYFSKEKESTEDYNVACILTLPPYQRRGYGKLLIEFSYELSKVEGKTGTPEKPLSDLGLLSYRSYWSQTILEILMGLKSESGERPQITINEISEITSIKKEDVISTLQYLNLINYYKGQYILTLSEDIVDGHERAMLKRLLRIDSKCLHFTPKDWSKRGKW

Experiment [1] deals with T1, FLAG epitope-tagged Cbx8 (mouse) (UniProt Q9QXV1).
T1 sequence: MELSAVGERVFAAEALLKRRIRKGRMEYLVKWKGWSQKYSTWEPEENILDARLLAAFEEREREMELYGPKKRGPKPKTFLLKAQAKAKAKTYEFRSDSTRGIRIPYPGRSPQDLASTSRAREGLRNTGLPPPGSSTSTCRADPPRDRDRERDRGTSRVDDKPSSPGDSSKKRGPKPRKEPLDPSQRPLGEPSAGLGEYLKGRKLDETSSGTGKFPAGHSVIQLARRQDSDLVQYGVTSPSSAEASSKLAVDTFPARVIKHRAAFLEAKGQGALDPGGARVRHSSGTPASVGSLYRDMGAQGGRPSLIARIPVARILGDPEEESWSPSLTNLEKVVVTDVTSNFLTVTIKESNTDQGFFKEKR
In words: affinity purification with mass spectrometry; anti-Flag M2 beads, 2 h; soluble nuclear extract (high salt extraction, diluted to isotonic concentration) of ES cells expressing Flag-tagged Cbx8, treated with RA for 3 days; parental (mock) cells as control; LC-MS/MS; only proteins enriched more than 10 fold with at least 5% coverage were considered.

For experiment [2], the target named is T2, FLAG epitope-tagged Cbx8 (mouse), Q9QXV1.
T2 chain: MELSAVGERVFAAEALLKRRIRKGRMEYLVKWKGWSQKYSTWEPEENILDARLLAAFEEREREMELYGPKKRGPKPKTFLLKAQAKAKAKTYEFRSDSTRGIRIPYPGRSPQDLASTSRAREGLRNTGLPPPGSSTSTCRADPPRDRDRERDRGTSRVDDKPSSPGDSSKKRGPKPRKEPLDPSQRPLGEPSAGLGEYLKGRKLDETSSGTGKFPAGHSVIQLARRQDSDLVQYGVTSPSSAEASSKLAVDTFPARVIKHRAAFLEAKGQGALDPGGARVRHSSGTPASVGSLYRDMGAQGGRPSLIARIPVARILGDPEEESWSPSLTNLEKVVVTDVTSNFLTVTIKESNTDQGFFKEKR
The description is as above. The conditions noted are these: remark: other sources report otherwise.

On to Ring1a (from UniProt O35730 1-406), for which, in experiment [1], the binding entry is “binds”.

With Tip60 (from UniProt Q8CHK4 1-513), the binding entry in experiment [1] was “no binding”.

B1: Phc2, Q9QWH1 1-850 (protein)
chain: MENELPVPHTSNRASVTTNTSGTNSSSGCISSSGGGGGSGGRPTAPQISVYSGIPDRQTVQVIQQALHRQPSTAAQYLQQMYAAQQQHLMLQTAALQQQHLSSAQLQSLAAVQQASLVANRQGSTPGSSVSSQAPAQSSSLNLAASPAAAQLINRAQSVNSAAASGLAQQAVLLGNTSSPALTASQAQMYLRAQMLIFTPTATVATVQPELCTGSPARPPTPAQVQNLTLRTQQTPAAAASGPPPTQPVLPSLALKPTPSSSQPLPAPPQGRTMAQGSPAGAKPSGTDNAPETLKAGDGNCNMEGRPGPGRAVPAVATHPLIAPAYAHLQSHQLLPQPPAKHPQPQFVAQQQPQPPRPAPQVQSQPQLASVSPSLALQSSPEDHALPLGSVTQALPLQCSTTHVHKPGNSQQCHLPTLDTGSQNGHPEGGSHPPQRRFQHTSAVILQVQPASPVTPQQCAPDDWKEVVPAEKSVPVARPGPSPHQQAIIPAIPGGLPGPKSPNIQQCPAHETGQGIVHALTDLSSPGMTSGNGNSASSIAGTAPQNGENKPPQAIVKPQILTHVIEGFVIQEGAEPFPVGRSSLLVGNLKKKYAQGFLPEKPPQQDHTTTTDSEMEEPYLQESKEEGTPLKLKCELCGRVDFAYKFKRSKRFCSMACAKRYNVGCTKRVGLFHSDRSKLQKAGTTTHNRRRASKASLPTLTKDTKKQPSGTVPLSVTAALQLAHSQEDSSRCSDNSSYEEPLSPISASSSTSRRRQGQRDLDLPDMHMRDLVGVGHHFLPSEPTKWNVEDVYEFIRSLPGCQEIAEEFRAQEIDGQALLLLKEDHLMSAMNIKLGPALKIYARISMLKDS
In the case of B1, the binding result in experiment [2] is listed as “binds”.

B2: Mel18 (protein, UniProt P23798 1-342)
chain: MHRTTRIKITELNPHLMCALCGGYFIDATTIVECLHSFCKTCIVRYLETNKYCPMCDVQVHKTRPLLSIRSDKTLQDIVYKLVPGLFKDEMKRRRDFYAAYPLTEVPNGSNEDRGEVLEQEKGALGDDEIVSLSIEFYEGVRDREEKKNLTENGDGDKEKTGVRFLRCPAAMTVMHLAKFLRNKMDVPSKYKVEILYEDEPLKEYYTLMDIAYIYPWRRNGPLPLKYRVQPACKRLTLPTVPTPSEGTNTSGASECESVSDKAPSPATLPATSSSLPSPATPSHGSPSSHGPPATHPTSPTPPSTAAGTTTATNGGTSNCLQTPSSTSRGRKMTVNGAPCPP
In the case of B2, the binding entry in experiment [1] is “binds”.
